From PMC12164590

Molecular target: TEF5-3xHA (THYLAKOID ENRICHED FRACTION 5 with a C-terminal 3xHA tag) (Chlamydomonas reinhardtii)
Assay: affinity purification with mass spectrometry; in vivo cross-linking with 0.37% formaldehyde; membrane-enriched fraction solubilised with 1% α-DDM in TNMK buffer; HA-coupled magnetic beads; LC-MS/MS of the precipitates, 3 replicates

binding: binds
B1: PsaD (protein, UniProt Q39615 36-196)
chain: EAEAAPAAAKKAAEKPAWTVPTLNPDTPSPIFGGSTGGLLRKAQTEEFYVITWEAKKEQIFEMPTGGAAIMRQGPNLLKFGKKEQCLALTTQLRNKFKLTPCFYRVFPDGKVQYLHPADGVYPEKVNAGRVGANQNMRRIGQNVNPIKVKFSGRMMSPAEI

These are yes or no findings as the source states them, for the method shown. Binding seen in cells or lysates may run through a third protein. These calls come from enrichment with a bait or labelling near it, and not all partners need be listed.
